PubChem BioAssay AID1224828, NIAID, 2016

- Aim: 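Regulators linking TLR4 signalling to p65 nuclear translocation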 (primary screen)
- Cells: mouse RAW264.7 G9 macrophage reporter cells (GFP-p65, Tnf promoter-mCherry)
- Reagent: siRNA pool against mouse genes, 100 nM
- Timing: 2 days siRNA transfection, then 40 min LPS before fixation
- Treatment: LPS (Salmonella minnesota R595) at 10 ng/ml
- Detection: 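Imaged p65 nuclear translocation ratio, normalised to the plate median, converted to robust z-scores and averaged across two replicates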
- Direction: p65 translocation robust z-score: higher = more nuclear NF-kappaB p65 after LPS than the plate median; nuclear/cytoplasmic p65 ratio: higher = more nuclear NF-kappaB p65
- Call rule: 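Active if robust z is above 3.3 (negative regulators) or below -1.56, the Tlr4 control median (positive regulators); activity score 50 or more; control wells not called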
- Calls: active = hit (p65 shift raised or lowered); inactive = no clear change
Shown is one part, drawn at random, of about 17,000 deposited reagents. 762 of them (4.5%) count as active. 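Active calls include both raised and lowered p65 entry, mostly lowered; wells with fewer than 50 cells lack a z-score.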 The raw values are shown without normalisation. Entries without a mark were called inactive.

| target | p65 translocation robust z-score | nuclear/cytoplasmic p65 ratio, rep 1 | nuclear/cytoplasmic p65 ratio, rep 2 | low cell count flag |
| --- | --- | --- | --- | --- |
| Fam161b (GeneID 217705) | – | 1.14 | 1.48 | fewer than 50 cells per well; well left out of scoring |
| Hddc3 (GeneID 68695) | -1.73 (active) | 1.31 | 1.2 | enough cells to score |
| Scin (GeneID 20259) | -0.8 | 1.36 | 1.09 | enough cells to score |
| Asf1b (GeneID 66929) | -1.56 | 1.33 | 1.33 | enough cells to score |
| Ces3b (GeneID 13909) | -0.99 | 1.63 | 1.35 | enough cells to score |
| Acaca (GeneID 107476) | 0.9 | 1.8 | 1.7 | enough cells to score |
| Nkiras2 (GeneID 71966) | -0.1 | 1.56 | 1.29 | enough cells to score |
| P2ry1 (GeneID 18441) | – | 1.52 | 1.41 | fewer than 50 cells per well; well left out of scoring |
| Gtsf1l (GeneID 68236) | -0.27 | 1.27 | 1.52 | enough cells to score |
| Asic3 (GeneID 171209) | 0.33 | 1.69 | 1.69 | enough cells to score |
| Myl10 (GeneID 59310) | 0.38 | 1.75 | 1.74 | enough cells to score |
| Gpr37 (GeneID 14763) | 0.72 | 1.6 | 1.69 | enough cells to score |
| Ppp1r12c (GeneID 232807) | -0.75 | 1.37 | 1.33 | enough cells to score |
| Ormdl2 (GeneID 66844) | -0.28 | 1.4 | 1.21 | enough cells to score |
| Zfp622 (GeneID 52521) | -0.81 | 1.26 | 1.2 | enough cells to score |
| Rab13 (GeneID 68328) | 0.85 | 1.63 | 1.64 | enough cells to score |
| Bco1 (GeneID 63857) | 0.4 | 1.47 | 1.6 | enough cells to score |
| Clec14a (GeneID 66864) | 0.62 | 1.51 | 1.5 | enough cells to score |
| Or2ag15 (GeneID 258592) | – | 1.27 | 1.26 | fewer than 50 cells per well; well left out of scoring |
| Rpl38 (GeneID 67671) | -0.71 | 1.35 | 1.12 | enough cells to score |
| Ppp3cb (GeneID 19056) | 0.33 | 1.58 | 1.42 | enough cells to score |

The list goes on (4 carried over from the part before).
| target | p65 translocation robust z-score | nuclear/cytoplasmic p65 ratio, rep 1 | nuclear/cytoplasmic p65 ratio, rep 2 | low cell count flag |
| --- | --- | --- | --- | --- |
| Clec14a (GeneID 66864) | 0.62 | 1.51 | 1.5 | enough cells to score |
| Or2ag15 (GeneID 258592) | – | 1.27 | 1.26 | fewer than 50 cells per well; well left out of scoring |
| Rpl38 (GeneID 67671) | -0.71 | 1.35 | 1.12 | enough cells to score |
| Ppp3cb (GeneID 19056) | 0.33 | 1.58 | 1.42 | enough cells to score |
| Txnrd2 (GeneID 26462) | -0.56 | 1.45 | 1.09 | enough cells to score |
| Fmo1 (GeneID 14261) | 0.3 | 1.46 | 1.42 | enough cells to score |
| Or5w16 (GeneID 258635) | -0.26 | 1.64 | 1.52 | enough cells to score |
| Ankrd54 (GeneID 223690) | 0.45 | 1.61 | 1.91 | enough cells to score |
| Pank4 (GeneID 269614) | -1.13 | 1.37 | 1.23 | enough cells to score |
| Cspg4 (GeneID 121021) | 0.13 | 1.6 | 1.8 | enough cells to score |
| Nop16 (GeneID 28126) | -0.41 | 1.53 | 1.69 | enough cells to score |
| Vpreb1a (GeneID 22362) | -0.99 | 1.38 | 1.36 | enough cells to score |
| Myt1 (GeneID 17932) | -1.33 | 1.24 | 1.2 | enough cells to score |
| Rab33b (GeneID 19338) | 0.14 | 1.5 | 1.57 | enough cells to score |
| Clic3 (GeneID 69454) | -0.81 | 1.33 | 1.3 | enough cells to score |
| 4933409G03Rik (GeneID 227998) | – | 1.35 | 1.57 | fewer than 50 cells per well; well left out of scoring |
| Zfp85os (GeneID 68271) | – | 1.25 | 1.54 | fewer than 50 cells per well; well left out of scoring |
| AY074887 (GeneID 246735) | 0.24 | 1.76 | 1.57 | enough cells to score |
| Or2b7 (GeneID 404335) | – | 1.33 | 1.47 | fewer than 50 cells per well; well left out of scoring |
| Cdk5rap1 (GeneID 66971) | 2 | 2.02 | 1.62 | enough cells to score |
| Ric1 (GeneID 226089) | 2.25 | 1.75 | 1.82 | enough cells to score |
| Pgr (GeneID 18667) | 0.5 | 1.55 | 1.49 | enough cells to score |
| Naip5 (GeneID 17951) | 1.22 | 1.72 | 1.87 | enough cells to score |
